Source: the supplement of paper PMC12823440, “Inhibitors supercharge kinase turnover through native proteolytic circuits” (Nature, 2025)
Structures can show the parent of a compound that is named as a salt. Some of the results follow. Hit calls seldom repeat between salt and free forms of one compound.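 Kinases were expressed as nanoluciferase fusions in K562 cells and luminescence was read every 4 h between 2 and 18 h as percent of control, DMSO set to 100% and a positive control to 0%. A time point counts as decreased when the signal drops significantly (2 sigma). The hit call is the authors' own, does not follow from the count of time points alone, and its rule is not shown.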

Sequences of proteins named here, by UniProt entry; tags and fusion partners are left off. A change or cut given only in a name is not applied to a line headed by its entry.
UniProt P31152, whole entry: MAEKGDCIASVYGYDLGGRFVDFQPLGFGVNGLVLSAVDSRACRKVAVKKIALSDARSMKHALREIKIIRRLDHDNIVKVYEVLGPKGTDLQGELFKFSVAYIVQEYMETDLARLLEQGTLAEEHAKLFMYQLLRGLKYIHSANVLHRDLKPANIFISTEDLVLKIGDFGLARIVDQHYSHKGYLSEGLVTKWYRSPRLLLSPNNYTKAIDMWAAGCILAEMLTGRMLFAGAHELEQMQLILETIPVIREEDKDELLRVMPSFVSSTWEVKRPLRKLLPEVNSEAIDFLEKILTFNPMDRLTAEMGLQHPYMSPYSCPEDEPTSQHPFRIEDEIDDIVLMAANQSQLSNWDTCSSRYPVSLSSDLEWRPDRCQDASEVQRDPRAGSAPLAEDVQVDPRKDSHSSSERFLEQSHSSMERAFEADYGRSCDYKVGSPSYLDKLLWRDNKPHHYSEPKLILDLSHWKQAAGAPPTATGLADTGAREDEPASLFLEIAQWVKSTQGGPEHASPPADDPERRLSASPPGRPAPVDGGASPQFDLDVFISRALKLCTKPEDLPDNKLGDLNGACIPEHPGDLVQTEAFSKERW
UniProt P49137, whole entry, looked up: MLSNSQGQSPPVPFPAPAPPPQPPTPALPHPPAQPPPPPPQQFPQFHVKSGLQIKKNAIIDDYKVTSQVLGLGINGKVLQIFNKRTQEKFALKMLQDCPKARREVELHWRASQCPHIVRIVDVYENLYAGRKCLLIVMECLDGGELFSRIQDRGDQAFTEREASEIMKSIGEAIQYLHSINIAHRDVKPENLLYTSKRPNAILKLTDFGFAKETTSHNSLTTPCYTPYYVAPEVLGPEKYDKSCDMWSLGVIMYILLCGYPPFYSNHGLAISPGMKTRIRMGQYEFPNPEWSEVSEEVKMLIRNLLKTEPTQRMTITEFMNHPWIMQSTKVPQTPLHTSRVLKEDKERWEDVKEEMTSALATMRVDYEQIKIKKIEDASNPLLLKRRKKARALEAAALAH
UniProt Q96KB5: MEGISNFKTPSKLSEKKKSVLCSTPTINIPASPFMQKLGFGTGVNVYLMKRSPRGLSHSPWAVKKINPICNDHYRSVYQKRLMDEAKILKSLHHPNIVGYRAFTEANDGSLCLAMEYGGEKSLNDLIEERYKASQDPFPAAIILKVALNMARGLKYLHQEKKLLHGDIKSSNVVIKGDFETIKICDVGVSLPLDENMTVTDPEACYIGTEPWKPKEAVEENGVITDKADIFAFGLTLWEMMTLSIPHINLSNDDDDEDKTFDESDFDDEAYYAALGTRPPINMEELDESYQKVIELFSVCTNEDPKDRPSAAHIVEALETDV
UniProt P09619, whole entry: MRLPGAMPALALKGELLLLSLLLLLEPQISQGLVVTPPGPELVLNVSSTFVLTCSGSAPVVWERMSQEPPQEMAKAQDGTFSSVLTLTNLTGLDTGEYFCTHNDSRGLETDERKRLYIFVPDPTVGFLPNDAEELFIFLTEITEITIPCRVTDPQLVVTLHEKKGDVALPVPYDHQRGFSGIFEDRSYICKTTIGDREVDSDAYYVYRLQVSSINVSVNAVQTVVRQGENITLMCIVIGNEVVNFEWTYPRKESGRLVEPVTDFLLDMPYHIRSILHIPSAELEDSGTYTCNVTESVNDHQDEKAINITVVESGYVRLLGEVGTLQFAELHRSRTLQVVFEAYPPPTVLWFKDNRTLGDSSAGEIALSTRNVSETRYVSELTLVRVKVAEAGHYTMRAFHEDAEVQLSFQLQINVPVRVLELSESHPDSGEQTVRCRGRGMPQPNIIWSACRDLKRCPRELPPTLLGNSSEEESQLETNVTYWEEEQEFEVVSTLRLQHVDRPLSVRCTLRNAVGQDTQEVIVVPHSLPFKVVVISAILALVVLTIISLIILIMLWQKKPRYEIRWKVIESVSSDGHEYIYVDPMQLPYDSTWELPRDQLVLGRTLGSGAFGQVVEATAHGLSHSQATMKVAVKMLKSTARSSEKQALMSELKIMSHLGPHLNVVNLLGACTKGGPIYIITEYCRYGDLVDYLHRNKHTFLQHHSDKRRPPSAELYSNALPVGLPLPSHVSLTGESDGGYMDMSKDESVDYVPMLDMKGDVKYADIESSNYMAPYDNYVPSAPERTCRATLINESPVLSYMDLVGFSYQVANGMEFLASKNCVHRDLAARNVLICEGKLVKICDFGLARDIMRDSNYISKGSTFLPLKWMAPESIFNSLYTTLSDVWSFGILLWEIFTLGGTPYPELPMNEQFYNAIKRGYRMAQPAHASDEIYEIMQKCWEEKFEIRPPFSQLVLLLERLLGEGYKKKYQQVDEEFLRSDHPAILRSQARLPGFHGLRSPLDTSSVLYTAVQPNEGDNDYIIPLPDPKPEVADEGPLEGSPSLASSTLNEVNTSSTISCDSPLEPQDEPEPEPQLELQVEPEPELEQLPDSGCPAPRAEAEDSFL
UniProt Q9UBF8: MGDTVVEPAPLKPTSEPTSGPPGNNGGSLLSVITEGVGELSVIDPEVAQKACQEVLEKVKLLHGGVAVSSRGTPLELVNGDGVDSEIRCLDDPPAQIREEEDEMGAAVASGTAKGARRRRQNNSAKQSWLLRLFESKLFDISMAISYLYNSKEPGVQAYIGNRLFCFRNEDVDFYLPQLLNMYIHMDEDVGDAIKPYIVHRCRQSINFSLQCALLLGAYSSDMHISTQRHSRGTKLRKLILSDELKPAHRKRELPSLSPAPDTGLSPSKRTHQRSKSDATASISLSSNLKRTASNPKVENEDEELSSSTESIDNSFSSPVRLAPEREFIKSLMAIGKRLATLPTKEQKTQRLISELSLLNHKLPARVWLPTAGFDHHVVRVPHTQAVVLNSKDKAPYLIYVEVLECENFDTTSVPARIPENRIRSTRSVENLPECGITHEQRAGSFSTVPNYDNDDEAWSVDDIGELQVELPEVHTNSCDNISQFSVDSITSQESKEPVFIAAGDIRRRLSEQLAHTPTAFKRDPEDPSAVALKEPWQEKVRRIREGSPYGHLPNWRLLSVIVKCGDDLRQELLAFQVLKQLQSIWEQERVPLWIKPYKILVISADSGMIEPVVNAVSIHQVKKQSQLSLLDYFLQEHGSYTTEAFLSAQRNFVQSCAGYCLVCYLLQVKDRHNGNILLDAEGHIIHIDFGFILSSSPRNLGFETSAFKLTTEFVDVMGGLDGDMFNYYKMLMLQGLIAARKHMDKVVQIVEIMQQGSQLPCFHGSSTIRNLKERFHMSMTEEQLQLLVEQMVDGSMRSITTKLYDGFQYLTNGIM
UniProt P53350, whole entry: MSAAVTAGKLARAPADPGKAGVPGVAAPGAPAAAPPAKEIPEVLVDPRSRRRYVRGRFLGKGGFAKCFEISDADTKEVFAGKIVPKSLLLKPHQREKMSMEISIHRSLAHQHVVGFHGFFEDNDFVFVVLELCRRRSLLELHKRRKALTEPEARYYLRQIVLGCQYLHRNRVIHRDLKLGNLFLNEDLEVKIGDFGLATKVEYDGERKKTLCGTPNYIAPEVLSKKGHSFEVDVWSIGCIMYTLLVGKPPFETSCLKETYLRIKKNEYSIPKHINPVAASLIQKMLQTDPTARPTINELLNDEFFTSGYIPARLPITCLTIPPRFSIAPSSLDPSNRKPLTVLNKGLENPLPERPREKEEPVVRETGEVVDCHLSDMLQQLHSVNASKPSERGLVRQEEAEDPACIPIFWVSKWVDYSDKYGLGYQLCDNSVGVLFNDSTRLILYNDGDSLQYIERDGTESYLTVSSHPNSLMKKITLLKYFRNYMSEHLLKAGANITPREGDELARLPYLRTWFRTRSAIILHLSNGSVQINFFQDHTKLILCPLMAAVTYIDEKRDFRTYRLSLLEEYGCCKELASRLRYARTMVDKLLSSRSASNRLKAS
UniProt Q05397, whole entry, looked up: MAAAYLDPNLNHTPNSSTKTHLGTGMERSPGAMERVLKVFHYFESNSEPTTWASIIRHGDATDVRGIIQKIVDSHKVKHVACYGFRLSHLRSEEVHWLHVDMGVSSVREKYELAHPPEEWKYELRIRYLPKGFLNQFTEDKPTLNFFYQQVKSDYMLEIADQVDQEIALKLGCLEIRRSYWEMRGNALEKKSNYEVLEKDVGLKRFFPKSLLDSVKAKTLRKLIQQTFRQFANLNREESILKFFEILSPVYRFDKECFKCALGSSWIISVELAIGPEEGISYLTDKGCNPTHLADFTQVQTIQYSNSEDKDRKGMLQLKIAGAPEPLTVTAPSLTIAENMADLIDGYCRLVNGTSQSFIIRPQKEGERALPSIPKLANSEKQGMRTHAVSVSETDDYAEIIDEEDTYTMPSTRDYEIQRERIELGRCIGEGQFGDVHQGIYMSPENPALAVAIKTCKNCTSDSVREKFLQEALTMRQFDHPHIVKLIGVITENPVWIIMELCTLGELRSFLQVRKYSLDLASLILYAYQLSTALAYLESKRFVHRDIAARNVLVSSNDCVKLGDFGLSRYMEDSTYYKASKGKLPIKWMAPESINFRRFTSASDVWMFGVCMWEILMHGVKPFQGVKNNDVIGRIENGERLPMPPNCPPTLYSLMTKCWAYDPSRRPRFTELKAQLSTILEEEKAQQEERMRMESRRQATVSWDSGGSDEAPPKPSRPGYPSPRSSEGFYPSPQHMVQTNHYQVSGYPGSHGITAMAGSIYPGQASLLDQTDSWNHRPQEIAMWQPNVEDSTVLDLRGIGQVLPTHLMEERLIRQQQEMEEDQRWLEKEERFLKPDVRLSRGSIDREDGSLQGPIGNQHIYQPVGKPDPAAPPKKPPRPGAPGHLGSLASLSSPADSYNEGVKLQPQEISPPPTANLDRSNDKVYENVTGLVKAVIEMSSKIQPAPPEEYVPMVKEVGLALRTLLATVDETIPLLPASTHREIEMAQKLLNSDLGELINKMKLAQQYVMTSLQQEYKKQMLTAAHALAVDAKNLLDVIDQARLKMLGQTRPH
UniProt Q14289, whole entry, looked up: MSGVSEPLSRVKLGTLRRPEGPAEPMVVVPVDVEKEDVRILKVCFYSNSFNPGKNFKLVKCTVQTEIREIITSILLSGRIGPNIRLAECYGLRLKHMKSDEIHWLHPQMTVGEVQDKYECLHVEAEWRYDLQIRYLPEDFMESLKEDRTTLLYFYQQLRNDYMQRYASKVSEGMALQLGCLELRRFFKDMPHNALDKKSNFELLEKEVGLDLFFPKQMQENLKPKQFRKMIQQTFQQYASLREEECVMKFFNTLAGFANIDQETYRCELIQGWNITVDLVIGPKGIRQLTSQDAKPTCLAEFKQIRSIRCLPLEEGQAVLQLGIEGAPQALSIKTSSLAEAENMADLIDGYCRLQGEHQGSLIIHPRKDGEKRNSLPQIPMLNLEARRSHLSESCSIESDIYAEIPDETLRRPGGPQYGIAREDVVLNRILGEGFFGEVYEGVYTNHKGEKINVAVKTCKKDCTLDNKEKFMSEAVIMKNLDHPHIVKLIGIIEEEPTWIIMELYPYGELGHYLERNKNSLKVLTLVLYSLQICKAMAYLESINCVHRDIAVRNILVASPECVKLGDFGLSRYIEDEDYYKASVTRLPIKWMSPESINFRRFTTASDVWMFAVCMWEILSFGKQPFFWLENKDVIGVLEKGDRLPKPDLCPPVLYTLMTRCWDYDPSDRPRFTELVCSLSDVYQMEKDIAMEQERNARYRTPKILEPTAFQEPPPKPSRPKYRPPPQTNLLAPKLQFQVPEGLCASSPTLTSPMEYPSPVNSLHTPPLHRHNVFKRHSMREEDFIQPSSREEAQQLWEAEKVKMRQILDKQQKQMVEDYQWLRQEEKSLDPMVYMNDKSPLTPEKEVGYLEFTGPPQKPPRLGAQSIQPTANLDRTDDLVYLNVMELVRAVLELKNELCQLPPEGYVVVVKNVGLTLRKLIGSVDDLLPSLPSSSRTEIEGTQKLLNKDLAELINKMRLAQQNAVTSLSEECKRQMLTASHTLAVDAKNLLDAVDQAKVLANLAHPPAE

Key:
Assay in all cases: kinase-Nluc reporter destabilization hit call (1 = scored as downregulated) (binary); higher = compound decreases kinase abundance
Settings in all cases: K562; 2-18 h
MAPK1 = MAPK1 (UniProt P28482)
MAPK4 = MAPK4 (UniProt P31152)
MAPKAPK2 = MAPKAPK2 (UniProt P49137)
MKNK1 = MKNK1 (UniProt Q9BUB5)
NTRK2 = NTRK2 (UniProt Q16620)
NTRK3 = NTRK3 (UniProt Q16288)
PAK4 = PAK4 (UniProt O96013)
PBK = PBK (UniProt Q96KB5)
PDGFRB = PDGFRB (UniProt P09619)
PDK1 = PDK1 (UniProt Q15118)
PDPK1 = PDPK1 (UniProt O15530)
PIK4CA = PIK4CA (UniProt P42356)
PIK4CB = PIK4CB (UniProt Q9UBF8)
PLK1 = PLK1 (UniProt P53350)
PRKAA1 = PRKAA1 (UniProt Q13131)
PRKCA = PRKCA (UniProt P17252)
PTK2 = PTK2 (UniProt Q05397)
PTK2B = PTK2B (UniProt Q14289)
RAF1 = RAF1 (UniProt P04049)
[1] = biological target: RAF1_S257L (clone: RAF1_mut) (UniProt P04049)

Measured: kinase-Nluc reporter destabilization hit call

Cc1ccc(C2CC(=O)NC(SCC(=O)Nc3nccs3)=C2C#N)cc1 (stereo not given) [Necrostatin-34] (10 µM)
inactive: MAPK1 = 0 | MAPK4 = 0 | MAPKAPK2 = 0 | MKNK1 = 0 | NTRK2 = 0 | NTRK3 = 0 | PAK4 = 0 | PBK 0 | PDGFRB 0 | PDK1 = 0 | PDPK1 = 0 | PIK4CA 0 | PIK4CB 0 | PLK1 = 0 | PRKAA1 = 0 | PRKCA 0 | PTK2 = 0 | PTK2B 0 | RAF1 = 0 | [1] 0

O=C1CCC(N2C(=O)c3cccc(OCCCCCOc4ccc(CC(=O)Nc5cc(C6CCC6)[nH]n5)cc4)c3C2=O)C(=O)N1 (stereo not given) [PROTAC CDK9 Degrader-1] (10 µM)
inactive: MAPK1 = 0 | MAPK4 = 0 | MAPKAPK2 = 0 | MKNK1 = 0 | NTRK2 = 0 | NTRK3 = 0 | PAK4 = 0 | PBK 0 | PDGFRB 0 | PDK1 = 0 | PDPK1 = 0 | PIK4CA 0 | PIK4CB 0 | PLK1 = 0 | PRKAA1 = 0 | PRKCA 0 | PTK2 = 0 | PTK2B 0 | RAF1 = 0 | [1] 0

CC(=O)Nc1nc(C)c(-c2cc(C)c3c(c2)CN([C@@H](C)C2CC2)C3=O)s1 (10 µM)
inactive: MAPK1 = 0 | MAPK4 = 0 | MAPKAPK2 = 0 | MKNK1 = 0 | NTRK2 = 0 | NTRK3 = 0 | PAK4 = 0 | PBK 0 | PDGFRB 0 | PDK1 = 0 | PDPK1 = 0 | PIK4CA 0 | PIK4CB 0 | PLK1 = 0 | PRKAA1 = 0 | PRKCA 0 | PTK2 = 0 | PTK2B 0 | RAF1 = 0 | [1] 0

CC1(C)CN(C(=O)c2ccc(-c3cccc4nc(NC(=O)C5CC5)nn34)cc2)C1 [Solcitinib] (10 µM)
inactive: MAPK1 = 0 | MAPK4 = 0 | MAPKAPK2 = 0 | MKNK1 = 0 | NTRK2 = 0 | NTRK3 = 0 | PAK4 = 0 | PBK 0 | PDGFRB 0 | PDK1 = 0 | PDPK1 = 0 | PIK4CA 0 | PIK4CB 0 | PLK1 = 0 | PRKAA1 = 0 | PRKCA 0 | PTK2 = 0 | PTK2B 0 | RAF1 = 0 | [1] 0

CCOC(=O)c1c(Nc2ccccc2Cl)oc(/C=C2\C=Nc3ncccc32)c1O (10 µM)
inactive: MAPK1 = 0 | MAPK4 = 0 | MAPKAPK2 = 0 | MKNK1 = 0 | NTRK2 = 0 | NTRK3 = 0 | PAK4 = 0 | PBK 0 | PDGFRB 0 | PDK1 = 0 | PDPK1 = 0 | PIK4CA 0 | PIK4CB 0 | PLK1 = 0 | PRKAA1 = 0 | PRKCA 0 | PTK2 = 0 | PTK2B 0 | RAF1 = 0 | [1] 0

Arranged by heavy-atom count (largest number first): some entries from above
O=C1CCC(N2C(=O)c3cccc(OCCCCCOc4ccc(CC(=O)Nc5cc(C6CCC6)[nH]n5)cc4)c3C2=O)C(=O)N1 (stereo not given) [PROTAC CDK9 Degrader-1] (10 µM)
inactive: MAPK1 = 0 | MAPK4 = 0 | MAPKAPK2 = 0 | MKNK1 = 0 | NTRK2 = 0 | NTRK3 = 0 | PAK4 = 0 | PBK 0 | PDGFRB 0 | PDK1 = 0 | PDPK1 = 0 | PIK4CA 0 | PIK4CB 0 | PLK1 = 0 | PRKAA1 = 0 | PRKCA 0 | PTK2 = 0 | PTK2B 0 | RAF1 = 0 | [1] 0

CC1(C)CN(C(=O)c2ccc(-c3cccc4nc(NC(=O)C5CC5)nn34)cc2)C1 [Solcitinib] (10 µM)
inactive: MAPK1 = 0 | MAPK4 = 0 | MAPKAPK2 = 0 | MKNK1 = 0 | NTRK2 = 0 | NTRK3 = 0 | PAK4 = 0 | PBK 0 | PDGFRB 0 | PDK1 = 0 | PDPK1 = 0 | PIK4CA 0 | PIK4CB 0 | PLK1 = 0 | PRKAA1 = 0 | PRKCA 0 | PTK2 = 0 | PTK2B 0 | RAF1 = 0 | [1] 0

Cc1ccc(C2CC(=O)NC(SCC(=O)Nc3nccs3)=C2C#N)cc1 (stereo not given) [Necrostatin-34] (10 µM)
inactive: MAPK1 = 0 | MAPK4 = 0 | MAPKAPK2 = 0 | MKNK1 = 0 | NTRK2 = 0 | NTRK3 = 0 | PAK4 = 0 | PBK 0 | PDGFRB 0 | PDK1 = 0 | PDPK1 = 0 | PIK4CA 0 | PIK4CB 0 | PLK1 = 0 | PRKAA1 = 0 | PRKCA 0 | PTK2 = 0 | PTK2B 0 | RAF1 = 0 | [1] 0

Continuation:

O=C(C#Cc1ccccc1)c1cccc([N+](=O)[O-])c1 (10 µM)
inactive: MAPK1 = 0 | MAPK4 = 0 | MAPKAPK2 = 0 | MKNK1 = 0 | NTRK2 = 0 | NTRK3 = 0 | PAK4 = 0 | PBK 0 | PDGFRB 0 | PDK1 = 0 | PDPK1 = 0 | PIK4CA 0 | PIK4CB 0 | PLK1 = 0 | PRKAA1 = 0 | PRKCA 0 | PTK2 = 0 | PTK2B 0 | RAF1 = 0 | [1] 0

COc1ccc2cc1Oc1ccc(cc1)C[C@H]1c3cc(c(OC)cc3CCN1C)Oc1c(O)c(OC)cc3c1[C@H](C2)N(C)CC3 [Fangchinoline] (2.5 µM)
inactive: MAPK1 = 0 | MAPK4 = 0 | MAPKAPK2 = 0 | MKNK1 = 0 | NTRK2 = 0 | NTRK3 = 0 | PAK4 = 0 | PBK 0 | PDGFRB 0 | PDK1 = 0 | PDPK1 = 0 | PIK4CA 0 | PIK4CB 0 | PLK1 = 0 | PRKAA1 = 0 | PRKCA 0 | PTK2 = 0 | PTK2B 0 | RAF1 = 0 | [1] 0

COc1ccc(Br)c(C=O)c1O [6-Bromo-2-hydroxy-3-methoxybenzaldehyde] (10 µM)
inactive: MAPK1 = 0 | MAPK4 = 0 | MAPKAPK2 = 0 | MKNK1 = 0 | NTRK2 = 0 | NTRK3 = 0 | PAK4 = 0 | PBK 0 | PDGFRB 0 | PDK1 = 0 | PDPK1 = 0 | PIK4CA 0 | PIK4CB 0 | PLK1 = 0 | PRKAA1 = 0 | PRKCA 0 | PTK2 = 0 | PTK2B 0 | RAF1 = 0 | [1] 0

Cn1c(N2CCO[C@@H](c3ccc(F)cc3)C2)nc(-c2ccncn2)cc1=O (10 µM)
inactive: MAPK1 = 0 | MAPK4 = 0 | MAPKAPK2 = 0 | MKNK1 = 0 | NTRK2 = 0 | NTRK3 = 0 | PAK4 = 0 | PBK 0 | PDGFRB 0 | PDK1 = 0 | PDPK1 = 0 | PIK4CA 0 | PIK4CB 0 | PLK1 = 0 | PRKAA1 = 0 | PRKCA 0 | PTK2 = 0 | PTK2B 0 | RAF1 = 0 | [1] 0

CCOc1cc(=O)[nH]cc1-c1ccc(CC(=O)Nc2cc(C(C)(C)C(F)(F)F)on2)c(F)c1 (10 µM)
inactive: MAPK1 = 0 | MAPK4 = 0 | MAPKAPK2 = 0 | MKNK1 = 0 | NTRK2 = 0 | NTRK3 = 0 | PAK4 = 0 | PBK 0 | PDGFRB 0 | PDK1 = 0 | PDPK1 = 0 | PIK4CA 0 | PIK4CB 0 | PLK1 = 0 | PRKAA1 = 0 | PRKCA 0 | PTK2 = 0 | PTK2B 0 | RAF1 = 0 | [1] 0

CCn1c(N)c(C(=O)NC)c(=O)c2ccc(C#CC(C)(O)COC)nc21 (stereo not given) (10 µM)
inactive: MAPK1 = 0 | MAPK4 = 0 | MAPKAPK2 = 0 | MKNK1 = 0 | NTRK2 = 0 | NTRK3 = 0 | PAK4 = 0 | PBK 0 | PDGFRB 0 | PDK1 = 0 | PDPK1 = 0 | PIK4CA 0 | PIK4CB 0 | PLK1 = 0 | PRKAA1 = 0 | PRKCA 0 | PTK2 = 0 | PTK2B 0 | RAF1 = 0 | [1] 0

CO[C@]1(C(=O)N[C@@H](C)c2ccc(-n3cc(F)cn3)nc2)CC[C@H](c2nc(C)cc(Nc3cc(C)[nH]n3)n2)CC1 [Pralsetinib] (10 µM)
inactive: MAPK1 = 0 | MAPK4 = 0 | MAPKAPK2 = 0 | MKNK1 = 0 | NTRK2 = 0 | NTRK3 = 0 | PAK4 = 0 | PBK 0 | PDGFRB 0 | PDK1 = 0 | PDPK1 = 0 | PIK4CA 0 | PIK4CB 0 | PLK1 = 0 | PRKAA1 = 0 | PRKCA 0 | PTK2 = 0 | PTK2B 0 | RAF1 = 0 | [1] 0

COc1cc(N2CCC(O)CC2)ccc1Nc1nc(Nc2ccccc2S(=O)(=O)C(C)C)c2[nH]cnc2n1 (10 µM)
inactive: MAPK1 = 0 | MAPK4 = 0 | MAPKAPK2 = 0 | MKNK1 = 0 | NTRK2 = 0 | NTRK3 = 0 | PAK4 = 0 | PBK 0 | PDGFRB 0 | PDK1 = 0 | PDPK1 = 0 | PIK4CA 0 | PIK4CB 0 | PLK1 = 0 | PRKAA1 = 0 | PRKCA 0 | PTK2 = 0 | PTK2B 0 | RAF1 = 0 | [1] 0

O=c1cc(-c2ccc(O[C@@H]3O[C@H](CO)[C@@H](O)[C@H](O)[C@H]3O)cc2)oc2cc(O)c([C@@H]3O[C@H](CO)[C@@H](O)[C@H](O)[C@H]3O[C@@H]3OC[C@H](O)[C@H](O)[C@H]3O)c(O)c12 [Vaccarin] (10 µM)
inactive: MAPK1 = 0 | MAPK4 = 0 | MAPKAPK2 = 0 | MKNK1 = 0 | NTRK2 = 0 | NTRK3 = 0 | PAK4 = 0 | PBK 0 | PDGFRB 0 | PDK1 = 0 | PDPK1 = 0 | PIK4CA 0 | PIK4CB 0 | PLK1 = 0 | PRKAA1 = 0 | PRKCA 0 | PTK2 = 0 | PTK2B 0 | RAF1 = 0 | [1] 0

N#Cc1cc(N2CCC(C(=O)N3N=CC[C@H]3c3cc(F)cc(F)c3)CC2)ncn1 (10 µM)
inactive: MAPK1 = 0 | MAPK4 = 0 | MAPKAPK2 = 0 | MKNK1 = 0 | NTRK2 = 0 | NTRK3 = 0 | PAK4 = 0 | PBK 0 | PDGFRB 0 | PDK1 = 0 | PDPK1 = 0 | PIK4CA 0 | PIK4CB 0 | PLK1 = 0 | PRKAA1 = 0 | PRKCA 0 | PTK2 = 0 | PTK2B 0 | RAF1 = 0 | [1] 0

COc1cc(Nc2ccnc3ccc(Br)cc23)cc(OC)c1OC (2.5 µM)
inactive: MAPK1 = 0 | MAPK4 = 0 | MAPKAPK2 = 0 | MKNK1 = 0 | NTRK2 = 0 | NTRK3 = 0 | PAK4 = 0 | PBK 0 | PDGFRB 0 | PDK1 = 0 | PDPK1 = 0 | PIK4CA 0 | PIK4CB 0 | PLK1 = 0 | PRKAA1 = 0 | PRKCA 0 | PTK2 = 0 | PTK2B 0 | RAF1 = 0 | [1] 0

CN1CCN(c2ccc(-n3cc(-c4ccncc4OCC4CCNCC4)cn3)cc2)CC1 [MELK-8a (hydrochloride)] (10 µM)
inactive: MAPK1 = 0 | MAPK4 = 0 | MAPKAPK2 = 0 | MKNK1 = 0 | NTRK2 = 0 | NTRK3 = 0 | PAK4 = 0 | PBK 0 | PDGFRB 0 | PDK1 = 0 | PDPK1 = 0 | PIK4CA 0 | PIK4CB 0 | PLK1 = 0 | PRKAA1 = 0 | PRKCA 0 | PTK2 = 0 | PTK2B 0 | RAF1 = 0 | [1] 0

N=C(NC(=N)N1CCCC1)Nc1ccc(OC(F)(F)F)cc1 (10 µM)
inactive: MAPK1 = 0 | MAPK4 = 0 | MAPKAPK2 = 0 | MKNK1 = 0 | NTRK2 = 0 | NTRK3 = 0 | PAK4 = 0 | PBK 0 | PDGFRB 0 | PDK1 = 0 | PDPK1 = 0 | PIK4CA 0 | PIK4CB 0 | PLK1 = 0 | PRKAA1 = 0 | PRKCA 0 | PTK2 = 0 | PTK2B 0 | RAF1 = 0 | [1] 0
